The values below come from publication PMC7162542.

Results are given in words; binding and its absence hold for the method and conditions named. Binding seen in cells or lysates may run through a third protein. Binding calls can cover weak binding; strength is not graded here. Sequences can lack the tags named with a protein.

The target in test [1] is MDA5 middle helicase domain. Kind of test: co-IP; HEK293 cells (control or ZFYVE1-KO) transfected with the indicated tagged plasmids for 20 h; NP-40 lysis buffer (20 mM Tris-HCl pH 7.4-7.5, 150 mM NaCl, 1 mM EDTA, 1% NP-40); antibody and GammaBind G Plus-Sepharose, 4°C, 2 h; washes with 500 mM NaCl; immunoblot.
Test [2] has as its target MDA5 N-terminal tandem CARDs. The test is described as above.

B1: ZFYVE1 (guanylate-binding protein and zinc-finger FYVE domain-containing protein), Flag- or HA-tagged (protein, UniProt Q9HBF4-1 1-777)
chain: MSAQTSPAEKGLNPGLMCQESYACSGTDEAIFECDECCSLQCLRCEEELHRQERLRNHERIRLKPGHVPYCDLCKGLSGHLPGVRQRAIVRCQTCKINLCLECQKRTHSGGNKRRHPVTVYNVSNLQESLEAEEMDEETKRKKMTEKVVSFLLVDENEEIQVTNEEDFIRKLDCKPDQHLKVVSIFGNTGDGKSHTLNHTFFYGREVFKTSPTQESCTVGVWAAYDPVHKVAVIDTEGLLGATVNLSQRTRLLLKVLAISDLVIYRTHADRLHNDLFKFLGDASEAYLKHFTKELKATTARCGLDVPLSTLGPAVIIFHETVHTQLLGSDHPSEVPEKLIQDRFRKLGRFPEAFSSIHYKGTRTYNPPTDFSGLRRALEQLLENNTTRSPRHPGVIFKALKALSDRFSGEIPDDQMAHSSFFPDEYFTCSSLCLSCGVGCKKSMNHGKEGVPHEAKSRCRYSHQYDNRVYTCKACYERGEEVSVVPKTSASTDSPWMGLAKYAWSGYVIECPNCGVVYRSRQYWFGNQDPVDTVVRTEIVHVWPGTDGFLKDNNNAAQRLLDGMNFMAQSVSELSLGPTKAVTSWLTDQIAPAYWRPNSQILSCNKCATSFKDNDTKHHCRACGEGFCDSCSSKTRPVPERGWGPAPVRVCDNCYEARNVQLAVTEAQVDDEGGTLIARKVGEAVQNTLGAVVTAIDIPLGLVKDAARPAYWVPDHEILHCHNCRKEFSIKLSKHHCRACGQGFCDECSHDRRAVPSRGWDHPVRVCFNCNKKPGDL
Turning to B1, the binding result in test [1] and in test [2] was “binds” in each case.
